From PubChem BioAssay AID463183 (Sanford-Burnham Center for Chemical Genomics, 2010) come the findings set out here.

The other results are listed elsewhere or left out. Further columns of the screen follow, without active or inactive calls. Compounds called inactive in the main read-out are mostly missing here.

A short description of this assay: hepatocyte lipid droplet accumulation inhibitors, confirmation, imaging, AML12 mouse hepatocytes, single concentration, high-content (AID 463183).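 Note: cells counted after overnight compound exposure.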 Particulars: BODIPY lipid droplet imaging, measured here: cell count, cytotoxicity, at 5.2 µM, droplets induced with 100 µM oleic acid.

The compound `CCCOC(=O)c1ccc(NC(=O)CCOc2ccccc2)cc1` showed a cell count of 1430 cells.

Take `CCC(NC(=O)c1cc(COc2cncc(Cl)c2)on1)c1ccncc1` (stereo not drawn): the cell count turned out to be 1600 cells.

As to `Nc1ccc2nc(Cc3ccccc3)[nH]c2c1`, the cell count amounted to 1510 cells.

Compound `CCOc1ccc(CCNC(=O)CCS(=O)(=O)c2ccc(C)cc2)cc1OCC` returned a cell count of 1610 cells.

The compound `CCCN1C(=O)/C(=C/c2c(N3CCNC(=O)C3CC(=O)OCC)nc3c(C)cccn3c2=O)SC1=S` (stereo not drawn) had a cell count of 1450 cells.

Regarding `COc1cccc(CNC(=O)C2CCCN(S(=O)(=O)c3c(C)noc3/C=C/N(C)C)C2)c1` (stereo not drawn), the cell count was determined as 1550 cells.

Compound `O=C(CSC1=NC2(CCCCCC2)N=C1c1ccccc1)Nc1ccc2c(c1)OCCO2` registered a cell count of 1690 cells.

Compound `CCn1cc(C(=O)NCCCN(CC(C)C)CC(C)C)c(=O)c2cc(S(=O)(=O)N(C)C3CCCCC3)ccc21` displayed a cell count of 1570 cells.

With `CCOc1ccc(CCNC(=O)CCCn2c(=O)c3cccn3c3cccnc32)cc1OCC`, the cell count was 1560 cells.

In turn, `CCCOc1ccc(CNC(=O)c2ccc3nc(N4CCOCC4)sc3c2)cc1` displayed a cell count of 1640 cells.

Regarding `CCCC1(c2ccccc2)NC(=O)N(CC(=O)Nc2cc(C)ccc2OC)C1=O` (stereo not drawn), the cell count was 1610 cells.

Regarding `O=C(CCC(=O)c1ccc(F)cc1)Nc1cccc(S(=O)(=O)Nc2cccc(Cl)c2)c1`, the cell count is 1610 cells.

For `CSc1ccccc1NC(=O)C1=CC(c2cccs2)=NS(=O)(=O)N1C`, the cell count stood at 1610 cells.

Consider `CCOc1ccc(C(=O)CCC(=O)NCC(=O)OCc2ccccc2)cc1OCC`, for which the cell count was found to be 1650 cells.

Compound `Nc1nc(-c2ccc(Cl)cc2)c(N=Nc2ccc(S(=O)(=O)N3CCOCC3)cc2)s1` returned a cell count of 1550 cells.

For the compound `O=C(CN1C(=O)NC2(CCOc3ccccc32)C1=O)c1ccc(Br)cc1` (stereo not drawn), the cell count came out at 1600 cells.

As to `Cc1ccc(CNC(=O)c2ccc(N3CCC4(CC3)CC(c3ccccc3)=NO4)c(NC(=O)c3ccc(Br)cc3)c2)cc1`, the cell count is 1600 cells.

In turn, `CCN(CC)S(=O)(=O)c1ccc(S(=O)(=O)N(CC(=O)Nc2ccccc2)Cc2ccco2)cc1` yielded a cell count of 1560 cells.

As for `C=CCN1C(=O)c2ccccc2Sc2ccc(C(=O)NCC(OC)OC)cc21`, the cell count came to 1630 cells.

With `CCOc1ccc(CCNC(=O)COC(=O)c2ccc(OC)c(OC)c2OC)cc1OCC`, the cell count was 1620 cells.

For `CCOc1ccccc1NC(=O)N1CCCC1C(=O)NCc1cccs1` (stereo not drawn), the cell count was 1620 cells.

In turn, `CCCCOc1ccccc1C(=O)N(Cc1ccc(C)o1)C1CCS(=O)(=O)C1` (stereo not drawn) had a cell count of 1480 cells.

`CCCOc1ccc(/C=N/Nc2ccccc2[N+](=O)[O-])c(O)c1`: the cell count worked out at 1640 cells.

`CSc1ccc(CN2CCN(C3CCCC3)C(CCO)C2)cc1` (stereo not drawn) gave a cell count of 1560 cells.

`CCN(CCn1cccn1)C(=O)c1cc(COc2ccc(F)cc2Cl)on1` returned a cell count of 1630 cells.

`CCOc1ccc(CCNC(=O)Nc2ccccc2C)cc1OCC` showed a cell count of 1540 cells.

`COc1ccc(C(C(=O)NC(C)(C)C)N(Cc2ccco2)C(=O)CCC(=O)Nc2cc(C)on2)cc1` (stereo not drawn) displayed a cell count of 1540 cells.

Consider `C=C(C)[C@@H]1CC[C@]2(C(=O)O)CC[C@]3(C)C(CCC4[C@@]5(C)CC[C@H](O)C(C)(C)C5CC[C@]43C)C12` (stereo partly drawn), for which the cell count came out at 1470 cells.

As to `Cc1ccccc1C(=O)NC1CCN(Cc2nnnn2C2CCCC2)CC1`, the cell count was found to be 1580 cells.

Compound `COC(=O)c1ccc2c(c1)NC(=O)C(N(CC(C)C)CC(C)C)S2` (stereo not drawn) returned a cell count of 1610 cells.

On to `CCc1ccc(NC(=O)CNC(=O)[C@@H]2Cc3ccccc3CN2C(=O)OC(C)(C)C)cc1`, for which the cell count came out at 1500 cells.

On to `CCN1CCN(c2cc(C(C)C)nc3c(-c4ccccc4)c(C)nn23)CC1`, for which the cell count is 1620 cells.

Regarding `CCOc1ccc(CCNC(=O)CCc2nnc3ccc(N4CCCCC4)nn23)cc1OCC`, the cell count was 1540 cells.

Take `COc1ccc(C(=O)NC2CCCc3c2cnn3-c2cccc(C)c2C)o1` (stereo not drawn): the cell count was 1580 cells.

On to `Cc1cc(C(=O)NC2CCCc3c2cnn3-c2ccc(C)c(C)c2)nc(C)n1` (stereo not drawn), for which the cell count turned out to be 1640 cells.

The compound `CCOc1ccc(NC(=O)CN(C)C(=O)c2ccc(C)c(S(=O)(=O)N3CCCCC3)c2)cc1OCC` registered a cell count of 1640 cells.

On to `CCCNC1=CC(=O)CC(C)(C)C1`, for which the cell count was 1620 cells.

`Cc1sc(NC(=O)Cc2ccc3c(c2)OCO3)nc1-c1ccc2c(c1)CCN2C(=O)c1ccccc1F` returned a cell count of 1470 cells.

Compound `Cc1ccc(NC(=O)C2CCCN(S(=O)(=O)c3c(C)noc3/C=C/N(C)C)C2)cc1F` (stereo not drawn) had a cell count of 1550 cells.

Regarding `CCC(C)NCCOc1ccc(C(C)(C)c2ccccc2)cc1` (stereo not drawn), the cell count was found to be 1590 cells.

Consider `CCN(CC)c1ccc(NC(=O)CN2CCN(S(=O)(=O)c3cc(Cl)ccc3OC)CC2)cc1`, for which the cell count worked out at 1640 cells.

`CCc1cccc(NC(=O)CCCn2nc(CC)n3c(cc4occc43)c2=O)c1` yielded a cell count of 1700 cells.

For the compound `CCOC(=O)C1CCN(C(=O)C2(NC(=O)Nc3ccc(F)cc3F)CCCCC2)CC1`, the cell count was 1680 cells.

Compound `CC(C)CCNC(=O)c1ccc2c(c1)N(C)C(=O)c1ccccc1S2` came in with a cell count of 1530 cells.

Compound `c1ccc(NCc2ccncc2)cc1` returned a cell count of 1560 cells.

Consider `COc1nccnc1NS(=O)(=O)c1ccc(NCc2cc(Br)ccc2O)cc1`, for which the cell count was 1610 cells.

Compound `CC1CCCCN1Cc1c(O)ccc2c(=O)c(-c3ccccc3)coc12` (stereo not drawn) gave a cell count of 1550 cells.

In the case of `O=C(CCNC(=O)C1CCN(S(=O)(=O)c2ccc(F)cc2)CC1)NCc1ccccc1Cl`, the cell count stood at 1630 cells.

In turn, `O=C(Cc1ccccc1)Nn1c(-c2ccccc2)nc2ccccc2c1=O` gave a cell count of 1600 cells.

For `CC(C)n1c(O)c(N=NC(=O)C2COc3ccccc3O2)c2ccccc21` (stereo not drawn), the cell count turned out to be 1620 cells.

`COc1ccc(N=NC2C(=O)N(c3ccccc3)N=C2C)cc1` (stereo not drawn) showed a cell count of 1560 cells.

Take `O=C(NCc1ccco1)c1ccc(Cn2c(=O)c3ccccc3n(Cc3ccc(Cl)cc3)c2=O)cc1`: the cell count came out at 1510 cells.

In turn, `COc1cc(C(=S)N2CCOCC2)cc(OC)c1OC(=O)c1ccccc1[N+](=O)[O-]` gave a cell count of 1600 cells.

The compound `COc1ccc(C)cc1S(=O)(=O)N(CC(=O)O)c1ccc(C)cc1` had a cell count of 1560 cells.

On to `COc1ccc(NC(=O)CCC(=O)Nc2cc(OC)c(NC(=O)c3cccs3)cc2OC)cc1`, for which the cell count was 1690 cells.

Regarding `NC(=O)CC(NC(=O)Cc1cccc2ccccc12)c1ccc(N2CCN(c3ccc(F)cc3)CC2)c([N+](=O)[O-])c1` (stereo not drawn), the cell count came to 1600 cells.

As to `Oc1ccc(N=Nc2cccc(C(F)(F)F)c2)cc1C=Nc1ccc(N2CCOCC2)cc1`, the cell count is 1580 cells.

`COC(=O)c1cc(C)sc1NC(=O)C1CC(=O)NN1Cc1ccccc1` (stereo not drawn) had a cell count of 1610 cells.

Compound `O=C(CSc1nc(O)cc(=O)[nH]1)N1c2ccccc2Sc2ccccc21` showed a cell count of 1540 cells.

`COc1ccc(NC(=O)Cc2c(C)n(C(=O)c3ccc(Cl)cc3)c3ccc(OC)cc23)cc1` yielded a cell count of 1570 cells.

Regarding `CCOC(=O)c1cc(-c2ccc(C)cc2)nc2nc(SC)[nH]c(=O)c12`, the cell count worked out at 1600 cells.

In turn, `CCOc1ccc(CCNC(=O)COC(=O)c2cc(OC)cc(OC)c2)cc1OCC` registered a cell count of 1620 cells.

The compound `CCOc1ccc(NC(=O)CCSc2nc3c(c(CC)c2C#N)C(=O)CC(C)(C)C3)cc1` gave a cell count of 1530 cells.

As for `CCN1CCN(c2c(/C=C3\SC(=S)N(Cc4ccco4)C3=O)c(C)c(C#N)c(=O)n2C)CC1`, the cell count amounted to 1590 cells.

With `O=C(CSc1nc(-c2ccco2)cc(C(F)(F)F)n1)Nc1ccc(C(=O)N2CCOCC2)cc1`, the cell count stood at 1600 cells.

Regarding `CCCOc1ccc(/C=N/Nc2ccccc2[N+](=O)[O-])c(OCCC)c1`, the cell count was 1630 cells.

For `Cc1cc(N2CCN(C)CC2)n2nc(-c3ccc(Cl)cc3)nc2n1`, the cell count worked out at 1550 cells.

`COc1ccc(N=Nc2nc(-c3ccccc3)c(-c3ccccc3)[nH]2)cc1` yielded a cell count of 1730 cells.

`Cc1c(C(=O)O)sc2nc3n(c(=O)c12)CCC(C)CC3` (stereo not drawn): the cell count came to 1650 cells.

`CCOC(=O)c1ccc(NC(=O)CCOc2ccc(C)cc2)cc1` returned a cell count of 1630 cells.

The compound `COC(=O)c1ccc(C2=NOC(C)(c3sc(-c4ccc(Cl)cc4)nc3C)C2)cc1` (stereo not drawn) returned a cell count of 1560 cells.

`CCCCn1c(SCC(=O)Nc2cc(C(F)(F)F)cc(C(F)(F)F)c2)nnc1C(CC)N(C)C` (stereo not drawn): the cell count came out at 1600 cells.

In the case of `OCCCNc1cc(-c2ccnc(Nc3cccc(Cl)c3)n2)ccn1`, the cell count stood at 598 cells.
